Laboratory results taken from paper PMC8602706.
No constants are given. Whether binding was seen depends on the method and setting. Binding seen in cells or lysates may run through a third protein. Some results given as binding are weak or reduced against the parent protein; the word gives no strength.

Sequences of proteins named here, by UniProt entry; tags and fusion partners are left off.
UniProt O15047: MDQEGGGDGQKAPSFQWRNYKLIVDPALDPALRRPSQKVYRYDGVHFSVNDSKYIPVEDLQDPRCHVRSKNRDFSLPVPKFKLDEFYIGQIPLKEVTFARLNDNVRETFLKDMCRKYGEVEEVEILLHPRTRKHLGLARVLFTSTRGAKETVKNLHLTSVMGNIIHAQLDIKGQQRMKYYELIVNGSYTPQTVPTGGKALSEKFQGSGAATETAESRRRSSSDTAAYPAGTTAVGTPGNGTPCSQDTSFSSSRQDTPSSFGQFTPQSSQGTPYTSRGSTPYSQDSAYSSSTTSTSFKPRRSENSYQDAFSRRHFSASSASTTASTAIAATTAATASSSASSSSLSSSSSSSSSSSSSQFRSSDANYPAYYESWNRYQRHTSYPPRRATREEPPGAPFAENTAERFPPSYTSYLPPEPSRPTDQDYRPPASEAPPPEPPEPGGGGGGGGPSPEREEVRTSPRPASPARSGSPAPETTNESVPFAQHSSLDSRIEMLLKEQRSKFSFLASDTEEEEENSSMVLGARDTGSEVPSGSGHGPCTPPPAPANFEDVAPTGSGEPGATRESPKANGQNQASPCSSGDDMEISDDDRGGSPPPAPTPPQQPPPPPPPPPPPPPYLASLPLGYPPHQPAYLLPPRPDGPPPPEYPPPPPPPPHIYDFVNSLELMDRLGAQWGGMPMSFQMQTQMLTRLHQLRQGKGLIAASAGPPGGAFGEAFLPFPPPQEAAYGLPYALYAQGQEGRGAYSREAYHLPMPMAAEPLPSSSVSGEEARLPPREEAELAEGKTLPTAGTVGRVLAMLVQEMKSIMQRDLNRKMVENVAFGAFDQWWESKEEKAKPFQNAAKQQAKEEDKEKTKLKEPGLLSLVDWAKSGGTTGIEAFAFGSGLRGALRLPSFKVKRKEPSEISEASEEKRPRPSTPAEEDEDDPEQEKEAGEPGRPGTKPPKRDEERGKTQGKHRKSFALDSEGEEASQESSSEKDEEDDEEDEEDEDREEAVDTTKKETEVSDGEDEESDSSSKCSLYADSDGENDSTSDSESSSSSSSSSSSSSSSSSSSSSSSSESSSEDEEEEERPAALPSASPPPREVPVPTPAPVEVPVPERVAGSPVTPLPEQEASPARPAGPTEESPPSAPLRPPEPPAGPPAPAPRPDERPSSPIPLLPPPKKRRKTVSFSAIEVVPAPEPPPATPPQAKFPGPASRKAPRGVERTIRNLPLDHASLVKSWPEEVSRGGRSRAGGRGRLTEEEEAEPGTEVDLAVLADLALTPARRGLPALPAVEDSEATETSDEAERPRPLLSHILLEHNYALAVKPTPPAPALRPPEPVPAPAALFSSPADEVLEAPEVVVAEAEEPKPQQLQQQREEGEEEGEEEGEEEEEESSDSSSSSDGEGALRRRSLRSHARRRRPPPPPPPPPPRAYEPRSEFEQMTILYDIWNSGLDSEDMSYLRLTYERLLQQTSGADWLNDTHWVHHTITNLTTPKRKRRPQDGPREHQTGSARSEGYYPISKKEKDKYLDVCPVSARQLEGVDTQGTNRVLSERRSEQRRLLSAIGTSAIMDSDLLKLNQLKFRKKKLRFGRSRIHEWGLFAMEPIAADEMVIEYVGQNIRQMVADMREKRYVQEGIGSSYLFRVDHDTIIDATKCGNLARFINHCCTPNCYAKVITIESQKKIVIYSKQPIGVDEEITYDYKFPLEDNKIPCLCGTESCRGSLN
UniProt O14980: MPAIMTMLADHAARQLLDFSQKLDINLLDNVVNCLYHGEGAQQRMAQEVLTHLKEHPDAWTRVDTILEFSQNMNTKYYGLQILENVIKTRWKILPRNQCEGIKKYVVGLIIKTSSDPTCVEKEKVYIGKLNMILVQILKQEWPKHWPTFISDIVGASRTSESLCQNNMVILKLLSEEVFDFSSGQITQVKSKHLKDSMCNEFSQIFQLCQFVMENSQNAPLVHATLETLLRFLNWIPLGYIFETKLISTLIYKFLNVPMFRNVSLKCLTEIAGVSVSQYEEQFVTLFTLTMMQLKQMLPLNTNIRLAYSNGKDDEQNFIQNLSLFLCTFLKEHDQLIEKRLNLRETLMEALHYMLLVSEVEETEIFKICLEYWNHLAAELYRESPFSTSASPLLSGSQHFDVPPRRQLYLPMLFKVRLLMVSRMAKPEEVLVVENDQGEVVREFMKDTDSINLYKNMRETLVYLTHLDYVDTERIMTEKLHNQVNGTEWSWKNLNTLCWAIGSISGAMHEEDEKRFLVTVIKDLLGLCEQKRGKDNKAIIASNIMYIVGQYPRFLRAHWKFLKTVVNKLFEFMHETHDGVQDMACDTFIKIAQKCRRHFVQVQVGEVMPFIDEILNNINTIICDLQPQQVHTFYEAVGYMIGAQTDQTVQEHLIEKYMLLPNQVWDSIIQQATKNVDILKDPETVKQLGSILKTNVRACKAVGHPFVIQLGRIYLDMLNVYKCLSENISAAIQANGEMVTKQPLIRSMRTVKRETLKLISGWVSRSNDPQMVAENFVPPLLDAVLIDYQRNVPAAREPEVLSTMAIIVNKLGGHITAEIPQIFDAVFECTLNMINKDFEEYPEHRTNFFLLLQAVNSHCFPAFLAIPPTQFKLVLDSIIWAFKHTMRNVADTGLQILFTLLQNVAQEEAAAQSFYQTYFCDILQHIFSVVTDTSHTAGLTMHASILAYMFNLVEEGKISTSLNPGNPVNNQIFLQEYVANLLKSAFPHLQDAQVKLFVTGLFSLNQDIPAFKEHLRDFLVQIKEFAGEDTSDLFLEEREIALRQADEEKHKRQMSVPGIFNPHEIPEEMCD

Assays:
[1] = molecular target: DPY30 (human (endogenous in HCT116)) (UniProt Q9C005); test: co-IP; endogenous immune complexes precipitated from lysates (mild lysis buffer, washed four times) of shCTRL and shABHD5 HCT116 cells, immunoblot of the partner; YAP/TEAD1 also compared in PNPLA2-knockdown cells
[2] = molecular target: SET1A (human (endogenous in HCT116)) (UniProt O15047); test: co-IP; endogenous proteins precipitated from nuclear lysates / nuclear protein of control (shCTRL) and ABHD5-knockdown (shABHD5) HCT116 cells with an antibody to the bait (mouse IgG as control), western blot of the partner; β-Catenin/TCF4 also compared in PNPLA2-knockdown cells
[3] = molecular target: YAP (human (endogenous in HCT116)) (UniProt P46937); test: co-IP; endogenous immune complexes precipitated from lysates (mild lysis buffer, washed four times) of shCTRL and shABHD5 HCT116 cells, immunoblot of the partner; YAP/TEAD1 also compared in PNPLA2-knockdown cells

Row | binding [1] | binding [2] | binding [3] | Substance
1 | binds | binds |  | YAP (from UniProt P46937 1-504)
2 |  |  | binds | CRM1 (from UniProt O14980 1-1071)
